These are literature values, as cited in US20050227915A1, “Methods and reagents for treating neurodegenerative diseases and motor deficit disorders” (priority 2001, published 2005).

Each structure is given as a SMILES string.

The subject of data set [1] is deacetylase. The conditions noted are these: cited from earlier work.
For data set [2], the system named is histone deacetylases (HDAC). Conditions: on a molar basis as an inhibitor of HDAC activity; cited from earlier work.

For the molecule `O=C(CCCCCCC(=O)Nc1ccccc1)NO` [SAHA, Suberoylanilide hydroxamic acid], in data set [1], the “Effective Inhibitory Concentration Range” value is recorded as “nM-μM”. Moreover, the “potency relative to the butyrate class of HDAC inhibitors” value in data set [2] is recorded as “approximately 10^3 fold”.
